Reference: PMC7411624

The chains behind the UniProt entries cited, without tags or fusion partners. Where a name states a change or a piece, a line headed by the entry shows the natural chain unless it says otherwise.
UniProt Q0IFK9: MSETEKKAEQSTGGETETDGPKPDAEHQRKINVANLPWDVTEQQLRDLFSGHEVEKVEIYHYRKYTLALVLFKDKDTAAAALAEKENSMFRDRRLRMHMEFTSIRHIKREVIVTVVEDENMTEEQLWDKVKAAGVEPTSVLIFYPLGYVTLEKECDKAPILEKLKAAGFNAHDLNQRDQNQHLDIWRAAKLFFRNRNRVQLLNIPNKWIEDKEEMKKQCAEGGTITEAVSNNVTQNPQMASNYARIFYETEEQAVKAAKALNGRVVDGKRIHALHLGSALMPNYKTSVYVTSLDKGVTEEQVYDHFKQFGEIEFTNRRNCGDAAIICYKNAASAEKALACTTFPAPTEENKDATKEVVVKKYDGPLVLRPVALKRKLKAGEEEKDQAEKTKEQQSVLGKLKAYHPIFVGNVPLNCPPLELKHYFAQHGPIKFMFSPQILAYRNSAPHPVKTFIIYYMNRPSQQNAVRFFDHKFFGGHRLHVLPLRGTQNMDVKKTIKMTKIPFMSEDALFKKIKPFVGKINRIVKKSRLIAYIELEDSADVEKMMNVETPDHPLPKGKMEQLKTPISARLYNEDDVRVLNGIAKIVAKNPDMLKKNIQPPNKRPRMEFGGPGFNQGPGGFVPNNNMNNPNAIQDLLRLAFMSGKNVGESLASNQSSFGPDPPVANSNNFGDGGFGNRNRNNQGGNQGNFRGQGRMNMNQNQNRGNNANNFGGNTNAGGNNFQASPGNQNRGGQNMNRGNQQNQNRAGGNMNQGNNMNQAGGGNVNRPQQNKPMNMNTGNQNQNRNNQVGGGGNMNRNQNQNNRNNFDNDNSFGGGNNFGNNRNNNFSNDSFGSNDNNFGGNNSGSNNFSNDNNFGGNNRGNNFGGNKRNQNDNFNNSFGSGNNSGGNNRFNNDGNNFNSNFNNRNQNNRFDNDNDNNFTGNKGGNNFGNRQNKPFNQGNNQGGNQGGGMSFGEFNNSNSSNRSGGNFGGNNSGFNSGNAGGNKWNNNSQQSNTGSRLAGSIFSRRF

Biological target: myc-tagged Q0IFK9 (aBravo, aedine broadly active antiviral protein) (Ae. aegypti) (UniProt Q0IFK9)
Experiment: co-IP

Molecule	binding
V5-tagged Ae. aegypti Dicer 2 (Dcr2) (from UniProt Q49LL4) (enzyme)	binds
V5-tagged Ae. aegypti Argonaute 2 (Ago2) (protein, UniProt C5J0H4 1-992) MILNARYLYIPCRQKQQQQQQQPQQQQQHQQKQQSQQQQQQQQQQQRSKEQGSQQQQRPQQQAQQQQPSQQQQQSQKQQHPQQQQQQRPQKQQQQFQQDQRPQQQQQQLQKQQQQQGQSWRPQSHDPSPASGSHSHSSSPSHAAALERVEEDFSKIKIDKQKIHSSALLPVLMRPNAHGTRGRAIKVEVNYIQLLLERLIPTAYHYDVDIQPAASRKWQRLAFSEFTKQMFPNHGFAFDGHKNAYAARRLQADVYEQEVKVRDEGRERRFKVAMKEAAVLDMTCLKTYMNNGSTLDKPMSAIQCLDIVLRTAYENNPRFIKFKKSIYVKPDRPDDIGSNHELWYGLFQSALLGARPFLNIDVSHKAFPTGGPVLRILVDMNRGQVPDRVTDWMSRDLHDFLKGMELSYTGPDGVSKLFKYNSIKSPANQQKFKLENGTEMTIDQYFRSKNKQLRYPSLPVLHVGSLVRNVMLPIELCSIPPGQALNKKHPDQCTQFIIRKSATDTATRKRKIMDLFNQIGYNNAPTIKEFGVSVGNNFETVDGRILDPPELSYRNDRRVKPMRGVWRADNMNFIIPSTEITRRELSWTILNLDGRTRPDAIDEFGRNIYQMSLKQGVQLQQFSMKNNFYEPRDMRFAVKDLDNIFDELKKRKIDLVFVVIPSPGRDGDVYAKVKQKAELCVGLLTQCIKSFTLDKKRGDMSTISNIWLKINAKTNGSNHVLAKNFKPPIARKTVMYVGADVTHPSPEQTNIPSVVGVAASYDLEGFRYNCCYRLQGPKDEMIRDLQNIVIKQLRQFKQTNQSLPELIMYYRDGVSEGQFQEVLTIELRAMQAAAASVQQGYKPNITFIVVQKRHHARFFPTANCPTEGRNNNVQPGTIVDRYITAPNQYQFFLVSHAAVQGVAKPTKYCVLYDDENCNPDQLQALTYYLCHMFTRCNRAVSYPAPTYYAHLAAYRGRVYIKDRPLNMNNLTKEYERMQIRTEIQDGHPMFFV	binds

Results are given in words; binding and its absence hold for the method and conditions named. Binding seen in cells or lysates may run through a third protein. Binding can be weak; no strength is given. Where a sequence is shown, tags or fusion partners need not be part of it.
